Source: PubChem BioAssay AID1259308 (NCATS, 2017)

Assay: 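Candidate targets for better recombinant protein yield in mammalian cells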 (primary screen)
System: human HEK293 embryonic kidney cells stably expressing firefly luciferase (HEK-CMV-Luc2-Hygro)
Reagents: single siRNA against human genes, 0.8 pmol siRNA per well
Time to read-out: 72 h
Read-out: 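Luciferase light (ONE-Glo) measured on one replicate plate set and viability (CellTiter-Glo) on the other, scaled to a negative control siRNA, with robust z-scores and luciferase per cell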
Reading the numbers: total luciferase, z-score and total luciferase, % of control: higher = more reporter protein produced
Hit rule: 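Active when the median/MAD z-score for overall luciferase is greater than 3; a gene was taken forward for validation with new siRNAs if at least two of its three siRNAs passed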
Calls: active = raised luciferase; inactive = no rise
Shown is a random part of about 59,000 reagents. In the full data, about 1,510 (2.6%) were called active. 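Calls use total luciferase alone and ignore viability, so some active siRNAs may act by altering cell number.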 Unmarked entries are inactive. Reagents against one gene are numbered here. Further read-outs or replicates are left out here.

Which result is listed for UGT2B4 #1?
total luciferase, z-score: -0.0479; total luciferase, % of control: 80.9

With UGT2B4 #2, what was measured?
total luciferase, z-score: -1.2; total luciferase, % of control: 58.1

With UGT2B4 #3, what was measured?
total luciferase, z-score: -2.26; total luciferase, % of control: 37

What is on record for SPP1 #1?
total luciferase, z-score: 0.684; total luciferase, % of control: 95.5

With SPP1 #2, what does the deposit list?
total luciferase, z-score: 3.07 (active); total luciferase, % of control: 143

Which result is listed for SPP1 #3?
total luciferase, z-score: -0.353; total luciferase, % of control: 74.9

How did the screen score ATF4 #1?
total luciferase, z-score: -1.82; total luciferase, % of control: 45.7

What did the screen give for ATF4 #2?
total luciferase, z-score: -2.26; total luciferase, % of control: 36.9

Which result is listed for ATF4 #3?
total luciferase, z-score: -1.56; total luciferase, % of control: 50.9

What is on record for HRH2 #1?
total luciferase, z-score: 2.15; total luciferase, % of control: 125

With HRH2 #2, what was measured?
total luciferase, z-score: -0.282; total luciferase, % of control: 76.3

How did the screen score HRH2 #3?
total luciferase, z-score: 2.44; total luciferase, % of control: 130

With SLC4A1AP #1, how do the results read?
total luciferase, z-score: 1.54; total luciferase, % of control: 113

With SLC4A1AP #2, what does the deposit list?
total luciferase, z-score: -0.523; total luciferase, % of control: 71.5

What is on record for SLC4A1AP #3?
total luciferase, z-score: 0.364; total luciferase, % of control: 89.1

What did the screen give for FUBP1 #1?
total luciferase, z-score: -1.45; total luciferase, % of control: 53.1

With FUBP1 #2, how do the results read?
total luciferase, z-score: -0.503; total luciferase, % of control: 71.9

With FUBP1 #3, what does the deposit list?
total luciferase, z-score: -0.948; total luciferase, % of control: 63

Which result is listed for FBXL15 #1?
total luciferase, z-score: -0.756; total luciferase, % of control: 66.8

Which result is listed for FBXL15 #2?
total luciferase, z-score: 0.00752; total luciferase, % of control: 82

Which result is listed for FBXL15 #3?
total luciferase, z-score: 1.48; total luciferase, % of control: 111

Reagents listed above called active, once more:
SPP1 #2 — total luciferase, z-score = 3.07 (active); total luciferase, % of control = 143

Further records follow.
How did the screen score C1orf162 #1?
total luciferase, z-score: 0.086; total luciferase, % of control: 83.6

For C1orf162 #2, how do the results read?
total luciferase, z-score: 3.76 (active); total luciferase, % of control: 157

How did the screen score C1orf162 #3?
total luciferase, z-score: -0.726; total luciferase, % of control: 67.5

For FOXJ2 #1, what was measured?
total luciferase, z-score: 0.992; total luciferase, % of control: 102

With FOXJ2 #2, what was measured?
total luciferase, z-score: 3.17 (active); total luciferase, % of control: 145

For FOXJ2 #3, what does the deposit list?
total luciferase, z-score: -0.0387; total luciferase, % of control: 81.1

What is on record for SLIT3 #1?
total luciferase, z-score: -0.334; total luciferase, % of control: 75.3

With SLIT3 #2, how do the results read?
total luciferase, z-score: 0.685; total luciferase, % of control: 95.5

Which result is listed for SLIT3 #3?
total luciferase, z-score: 0.047; total luciferase, % of control: 82.8

For ZFP42 #1, how do the results read?
total luciferase, z-score: -0.121; total luciferase, % of control: 79.5

Which result is listed for ZFP42 #2?
total luciferase, z-score: -1.53; total luciferase, % of control: 51.4

For ZFP42 #3, how do the results read?
total luciferase, z-score: 1.33; total luciferase, % of control: 108
